Results from paper PMC5062570 (Nature Communications, 2016).
“Also recorded” adds a separate entry of the source.

How the values were obtained:
RPE tissue proteins = assay: Proteomic analysis (peptide spectral matches) of RPE tissue from dosed rats; type: in vivo, rat; details: for High? / Low?: direction of change in PF-9283-treated vs vehicle rat RPE; for PF-9283 avg. # PSM: three PF-9283-treated rats, two technical replicates; for Hit?: significant difference vehicle vs PF-9283, two-tailed t-test
[1] = tested on: CatD protein in mouse brain; assay: CatD western blot of brain homogenates from dosed mice; type: in vivo; details: 80 mg kg-1 daily, 30 days
[2] = protein 4F2 cell-surface antigen heavy chain (Q794F9), rat RPE, 80 mg kg-1 daily, 14 days
[3] = protein Annexin A6 (P48037), rat RPE, 80 mg kg-1 daily, 14 days
[4] = protein Apolipoprotein A-I (P04639), rat RPE, 80 mg kg-1 daily, 14 days
[5] = protein Cathepsin D (Q6P6T6), rat RPE, 80 mg kg-1 daily, 14 days
[6] = protein Cytochrome c oxidase subunit 6C-2 (P11951), rat RPE, 80 mg kg-1 daily, 14 days
[7] = protein Guanine nucleotide-binding protein G(o) subunit alpha (D4ABT0), rat RPE, 80 mg kg-1 daily, 14 days
[8] = protein Isoform 3 of NADH-cytochrome b5 reductase 3 (P20070-3), rat RPE, 80 mg kg-1 daily, 14 days
[9] = protein Serine (or cysteine) proteinase inhibitor, clade H, member 1 (Q5RJR9), rat RPE, 80 mg kg-1 daily, 14 days
[10] = protein Sulfated glycoprotein 1 (P10960), rat RPE, 80 mg kg-1 daily, 14 days
[11] = protein Transgelin (P31232), rat RPE, 80 mg kg-1 daily, 14 days
[12] = protein Tyrp1 (D3ZH71), rat RPE, 80 mg kg-1 daily, 14 days
[13] = protein: Isoform 3 of NADH-cytochrome b5 reductase 3 (P20070-3)

## Cc1cc([C@H]2C[C@H]3[C@@H](C)SC(N)=N[C@@]3(c3ccc(F)cc3F)CO2)on1 [PF-9283]
RPE tissue proteins; [2]
  PF-9283/Veh. PSM: 0.41
  PF-9283 Avg. # PSM: 6.8
RPE tissue proteins; [3]
  PF-9283/Veh. PSM: 0.61
  PF-9283 Avg. # PSM: 9.0
RPE tissue proteins; [4]
  PF-9283/Veh. PSM: 1.57
  PF-9283 Avg. # PSM: 7.8
RPE tissue proteins; [5]
  PF-9283/Veh. PSM: 1.69
  PF-9283 Avg. # PSM: 85.5
RPE tissue proteins; [6]
  PF-9283/Veh. PSM: 0.60
  PF-9283 Avg. # PSM: 5.0
RPE tissue proteins; [7]
  PF-9283/Veh. PSM: 0.64
  PF-9283 Avg. # PSM: 14.8
RPE tissue proteins; [8]
  PF-9283/Veh. PSM: 0.65
  PF-9283 Avg. # PSM: 6.2
RPE tissue proteins; [9]
  PF-9283/Veh. PSM: 0.59
  PF-9283 Avg. # PSM: 17.7
RPE tissue proteins; [10]
  PF-9283/Veh. PSM: 1.75
  PF-9283 Avg. # PSM: 52.5
RPE tissue proteins; [11]
  PF-9283/Veh. PSM: 1.52
  PF-9283 Avg. # PSM: 26.3
RPE tissue proteins; [12]
  PF-9283/Veh. PSM: 0.60
  PF-9283 Avg. # PSM: 5.7
RPE tissue proteins; protein: Cathepsin D (Q6P6T6)
  High? / Low?: high
  Hit?: Hit
RPE tissue proteins; protein: Cathepsin D (Q6P6T6), rat RPE tissue, ratio of average PSM
  PF-9283/Veh. PSM: 1.69
RPE tissue proteins; protein: Cathepsin D (Q6P6T6), rat RPE tissue
  PF-9283 avg. # PSM: 85.5
RPE tissue proteins; protein: Ezrin (P31977)
  High? / Low?: low
  Hit?: Hit
RPE tissue proteins; protein: Ezrin (P31977), rat RPE tissue, ratio of average PSM
  PF-9283/Veh. PSM: 0.84
RPE tissue proteins; protein: Ezrin (P31977), rat RPE tissue
  PF-9283 avg. # PSM: 29.7
RPE tissue proteins; [13]
  High? / Low?: low
  Hit?: Hit
RPE tissue proteins; protein: Isoform 3 of NADH-cytochrome b5 reductase 3 (P20070-3), rat RPE tissue, ratio of average PSM
  PF-9283/Veh. PSM: 0.65
RPE tissue proteins; protein: Isoform 3 of NADH-cytochrome b5 reductase 3 (P20070-3), rat RPE tissue
  PF-9283 avg. # PSM: 6.2
RPE tissue proteins; protein: Transgelin (P31232)
  High? / Low?: high
  Hit?: Hit
RPE tissue proteins; protein: Transgelin (P31232), rat RPE tissue, ratio of average PSM
  PF-9283/Veh. PSM: 1.52
RPE tissue proteins; protein: Transgelin (P31232), rat RPE tissue
  PF-9283 avg. # PSM: 26.3
RPE tissue proteins; rats, 80 mg kg-1 daily, 14 days
  Increase in CatD in rat RPE (PSM, versus vehicle): 1.7 fold
[1]
  CatD protein level in mouse brain (western blot): significantly increased levels of CatD protein; also recorded: increased levels of CatD heavy and light chains, but not the CatD single chain
